Record: PubChem BioAssay AID1508588 (Peter MacCallum Cancer Centre, 2020)
Test: 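Genome-wide search for knock-downs that heighten vemurafenib action in melanoma cells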 (primary screen). System: human WM266.4 melanoma cells (BRAF V600 mutant). Knock-down reagent: siRNA pool against human genes, 40 nM. Time to read-out: 96 h from transfection to read-out. Conditions: vemurafenib 300 nM (about IC25), added 48 h after transfection, for 48 h; comparison arm got DMSO vehicle only. Measured: 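Cell gain (DAPI nuclei at end minus before drug, mean of two replicates) and medium lactate by absorbance per cell, both as ratio to non-targeting siRNA, also grouped into fold-change classes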. Scale: cell gain with vemurafenib: higher = more cell gain than with non-targeting siRNA; lactate per cell with vemurafenib: higher = more lactate made per cell. Rule for the call: 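a knock-down counts as enhancing when its fold-change classes with vehicle and with vemurafenib, taken together, show a stronger drug effect on cell gain or lactate per cell; exact class pairs not stated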. Calls: active = enhances vemurafenib effect; inactive = no enhancement seen.
This is an unselected part of about 18,000 deposited reagents. 790 of all reagents (4.4%) were called active. 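Calls rest on a combination of fold-change classes in drug and vehicle arms, not all shown here.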

gene,cell gain with vemurafenib,lactate per cell with vemurafenib,call
S100A3 (GeneID 6274),0.29,2.87,inactive
PLAU (GeneID 5328),0.56,1,inactive
GPATCH4 (GeneID 54865),0.38,1.34,inactive
SPCS2P4 (GeneID 653566),1.07,0.82,inactive
ASAP3 (GeneID 55616),0.22,1.21,inactive
NOSTRIN (GeneID 115677),0.32,1.5,inactive
IFT57 (GeneID 55081),0.48,1.25,inactive
VWF (GeneID 7450),0.68,1.04,inactive
CARD6 (GeneID 84674),0.86,1.22,inactive
PCGF6 (GeneID 84108),0.53,0.86,inactive
AGMAT (GeneID 79814),1.04,0.96,inactive
ID1 (GeneID 3397),0.5,0.78,inactive
AQP10 (GeneID 89872),0.82,0.78,inactive
GSTT2 (GeneID 2953),1.21,0.55,inactive
SOX30 (GeneID 11063),0.54,0.96,inactive
PRR3 (GeneID 80742),0.84,0.49,inactive
PGK2 (GeneID 5232),0.51,0.84,inactive
SIGLEC1 (GeneID 6614),0.41,1.2,inactive
ZNF560 (GeneID 147741),0.83,0.87,inactive
ZNF667 (GeneID 63934),0.62,0.64,inactive
THSD1 (GeneID 55901),0.62,0.36,active
SRGAP1 (GeneID 57522),0.55,1.13,inactive
IP6K2 (GeneID 51447),0.6,1.51,inactive
SF3B5 (GeneID 83443),0.08,1.73,inactive
ARHGAP1 (GeneID 392),0.42,0.74,inactive
C1QB (GeneID 713),0.45,1.4,inactive
SLC22A11 (GeneID 55867),0.82,0.92,inactive
EXOSC3 (GeneID 51010),0.66,1.32,inactive
EMX2 (GeneID 2018),0.48,0.96,inactive

9 of these entries, set out differently.
{"gene":"PLAU (GeneID 5328)","cell gain with vemurafenib":0.56,"lactate per cell with vemurafenib":1,"call":"inactive"}
{"gene":"GPATCH4 (GeneID 54865)","cell gain with vemurafenib":0.38,"lactate per cell with vemurafenib":1.34,"call":"inactive"}
{"gene":"SPCS2P4 (GeneID 653566)","cell gain with vemurafenib":1.07,"lactate per cell with vemurafenib":0.82,"call":"inactive"}
{"gene":"ASAP3 (GeneID 55616)","cell gain with vemurafenib":0.22,"lactate per cell with vemurafenib":1.21,"call":"inactive"}
{"gene":"NOSTRIN (GeneID 115677)","cell gain with vemurafenib":0.32,"lactate per cell with vemurafenib":1.5,"call":"inactive"}
{"gene":"IFT57 (GeneID 55081)","cell gain with vemurafenib":0.48,"lactate per cell with vemurafenib":1.25,"call":"inactive"}
{"gene":"VWF (GeneID 7450)","cell gain with vemurafenib":0.68,"lactate per cell with vemurafenib":1.04,"call":"inactive"}
{"gene":"CARD6 (GeneID 84674)","cell gain with vemurafenib":0.86,"lactate per cell with vemurafenib":1.22,"call":"inactive"}
{"gene":"PCGF6 (GeneID 84108)","cell gain with vemurafenib":0.53,"lactate per cell with vemurafenib":0.86,"call":"inactive"}

Continued.
gene,cell gain with vemurafenib,lactate per cell with vemurafenib,call
OSGEPL1 (GeneID 64172),0.74,1.02,inactive
NPY (GeneID 4852),1.06,0.4,inactive
SOS1 (GeneID 6654),0.39,1.33,inactive
C4BPB (GeneID 725),0.37,0.9,inactive
SAMD5 (GeneID 389432),0.89,1.74,inactive
EVC (GeneID 2121),1.03,0.79,inactive
CNGA4 (GeneID 1262),0.43,0.97,inactive
DBX1 (GeneID 120237),0.66,0.76,inactive
AXDND1 (GeneID 126859),1.03,0.64,inactive
DYNC2H1 (GeneID 79659),0.34,1.13,inactive
MOAP1 (GeneID 64112),0.6,1.01,inactive
SOD1 (GeneID 6647),0.92,1.7,inactive
WFDC10A (GeneID 140832),0.55,0.9,inactive
MAST3 (GeneID 23031),1.1,0.76,inactive
ABHD12 (GeneID 26090),0.61,0.7,inactive
ZNF501 (GeneID 115560),0.79,0.63,inactive
DRAM1 (GeneID 55332),0.91,0.59,inactive
C17orf78 (GeneID 284099),-0.07,2.5,inactive
ADARB1 (GeneID 104),0.33,1.9,inactive
PCTP (GeneID 58488),0.96,0.82,inactive
EPB42 (GeneID 2038),0.89,0.97,inactive
DGKA (GeneID 1606),0.43,0.74,inactive
STK38L (GeneID 23012),0.52,1.74,inactive
CEP152 (GeneID 22995),1.04,0.84,inactive
DLGAP1 (GeneID 9229),0.43,0.82,inactive
CXCL9 (GeneID 4283),0.3,1.08,inactive
BROX (GeneID 148362),0.54,1.69,inactive
FOXD3 (GeneID 27022),0.97,0.84,inactive
PTPRD (GeneID 5789),0.89,0.77,inactive
DGKQ (GeneID 1609),0.83,1.23,inactive
BRI3BP (GeneID 140707),1.23,0.41,inactive
TEX35 (GeneID 84066),0.43,0.66,inactive
IFT172 (GeneID 26160),0.45,1.48,inactive
CD96 (GeneID 10225),0.76,0.68,inactive
COQ10A (GeneID 93058),0.43,1.1,inactive
ZBTB39 (GeneID 9880),0.71,1.52,inactive
SIAH2 (GeneID 6478),0.89,1.12,inactive
MSRA (GeneID 4482),0.45,0.94,inactive
PSMB3 (GeneID 5691),0.08,1.9,inactive
ALB (GeneID 213),0.84,0.63,inactive
TBX10 (GeneID 347853),0.78,0.91,inactive
TP53TG5 (GeneID 27296),0.65,1.48,inactive
LRATD1 (GeneID 151354),1.09,1.35,inactive
NIN (GeneID 51199),0.44,1.01,inactive
APAF1 (GeneID 317),0.13,0.5,inactive
USP6NL (GeneID 9712),0.39,0.82,inactive
KRT71 (GeneID 112802),0.06,0.44,inactive
OAS1 (GeneID 4938),0.85,1.56,inactive
SLC38A8 (GeneID 146167),0.32,0.99,inactive
NSUN2 (GeneID 54888),0.48,0.59,active
KLHL12 (GeneID 59349),0.54,0.71,inactive
LY96 (GeneID 23643),0.66,0.76,inactive
TMEM245 (GeneID 23731),0.77,1.07,inactive
ATAD2 (GeneID 29028),0.72,0.69,inactive
EYA3 (GeneID 2140),0.5,0.94,inactive
